PMC7560607, “Synapse type-specific proteomic dissection identifies IgSF8 as a hippocampal CA3 microcircuit organizer” (Nature Communications, 2020)
No constants are given. Whether binding was seen depends on the method and setting. Some results given as binding are weak or reduced against the parent protein; the word gives no strength. Sequences can lack the tags named with a protein.

Sequences of proteins named here, by UniProt entry; tags and fusion partners are left off. Residues count along the entry.
UniProt Q61361, residues 23-883: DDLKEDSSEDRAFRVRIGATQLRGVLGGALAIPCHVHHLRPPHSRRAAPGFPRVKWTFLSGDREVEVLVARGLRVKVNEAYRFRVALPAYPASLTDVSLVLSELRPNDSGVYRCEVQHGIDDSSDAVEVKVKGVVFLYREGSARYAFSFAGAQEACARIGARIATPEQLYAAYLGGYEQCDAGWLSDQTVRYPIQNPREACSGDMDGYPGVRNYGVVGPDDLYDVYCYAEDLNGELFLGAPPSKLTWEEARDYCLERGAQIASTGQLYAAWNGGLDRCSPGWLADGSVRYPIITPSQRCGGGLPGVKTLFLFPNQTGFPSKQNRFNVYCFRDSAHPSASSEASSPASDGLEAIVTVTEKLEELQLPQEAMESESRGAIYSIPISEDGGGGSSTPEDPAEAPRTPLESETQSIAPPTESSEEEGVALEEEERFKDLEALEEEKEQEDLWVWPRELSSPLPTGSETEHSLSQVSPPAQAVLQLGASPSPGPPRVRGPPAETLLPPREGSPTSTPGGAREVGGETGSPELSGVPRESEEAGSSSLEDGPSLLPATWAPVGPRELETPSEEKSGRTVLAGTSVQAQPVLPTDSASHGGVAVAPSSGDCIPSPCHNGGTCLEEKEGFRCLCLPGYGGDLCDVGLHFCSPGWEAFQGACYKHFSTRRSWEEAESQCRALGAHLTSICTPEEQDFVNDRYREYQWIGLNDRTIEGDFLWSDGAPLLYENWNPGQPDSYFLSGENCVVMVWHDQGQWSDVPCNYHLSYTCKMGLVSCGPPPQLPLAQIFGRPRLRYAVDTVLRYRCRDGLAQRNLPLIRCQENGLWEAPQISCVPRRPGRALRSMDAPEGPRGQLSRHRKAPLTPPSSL
UniProt Q69ZK9, residues 15-678: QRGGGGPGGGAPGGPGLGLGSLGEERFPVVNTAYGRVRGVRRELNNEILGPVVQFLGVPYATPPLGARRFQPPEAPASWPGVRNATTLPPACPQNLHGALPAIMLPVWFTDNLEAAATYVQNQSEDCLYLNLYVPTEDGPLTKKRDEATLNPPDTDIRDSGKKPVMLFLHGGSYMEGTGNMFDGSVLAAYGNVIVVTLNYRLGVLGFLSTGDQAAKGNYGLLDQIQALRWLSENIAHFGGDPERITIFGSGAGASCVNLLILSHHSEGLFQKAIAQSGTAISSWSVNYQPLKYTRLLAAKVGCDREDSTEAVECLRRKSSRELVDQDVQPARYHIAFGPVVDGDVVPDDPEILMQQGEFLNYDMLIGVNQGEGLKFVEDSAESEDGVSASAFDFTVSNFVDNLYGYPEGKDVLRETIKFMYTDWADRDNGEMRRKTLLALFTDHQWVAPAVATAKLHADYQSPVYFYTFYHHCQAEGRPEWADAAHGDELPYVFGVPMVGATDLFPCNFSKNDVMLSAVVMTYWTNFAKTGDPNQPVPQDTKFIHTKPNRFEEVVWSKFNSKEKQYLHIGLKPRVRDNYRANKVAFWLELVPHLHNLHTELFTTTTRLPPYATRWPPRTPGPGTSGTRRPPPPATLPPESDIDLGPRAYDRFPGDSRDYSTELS

T1: neuropilin-1 extracellular domain, AP- or Fc-tagged (interactome library) (not stated (human or mouse sequence cloned)) (UniProt P97333)
T1 sequence: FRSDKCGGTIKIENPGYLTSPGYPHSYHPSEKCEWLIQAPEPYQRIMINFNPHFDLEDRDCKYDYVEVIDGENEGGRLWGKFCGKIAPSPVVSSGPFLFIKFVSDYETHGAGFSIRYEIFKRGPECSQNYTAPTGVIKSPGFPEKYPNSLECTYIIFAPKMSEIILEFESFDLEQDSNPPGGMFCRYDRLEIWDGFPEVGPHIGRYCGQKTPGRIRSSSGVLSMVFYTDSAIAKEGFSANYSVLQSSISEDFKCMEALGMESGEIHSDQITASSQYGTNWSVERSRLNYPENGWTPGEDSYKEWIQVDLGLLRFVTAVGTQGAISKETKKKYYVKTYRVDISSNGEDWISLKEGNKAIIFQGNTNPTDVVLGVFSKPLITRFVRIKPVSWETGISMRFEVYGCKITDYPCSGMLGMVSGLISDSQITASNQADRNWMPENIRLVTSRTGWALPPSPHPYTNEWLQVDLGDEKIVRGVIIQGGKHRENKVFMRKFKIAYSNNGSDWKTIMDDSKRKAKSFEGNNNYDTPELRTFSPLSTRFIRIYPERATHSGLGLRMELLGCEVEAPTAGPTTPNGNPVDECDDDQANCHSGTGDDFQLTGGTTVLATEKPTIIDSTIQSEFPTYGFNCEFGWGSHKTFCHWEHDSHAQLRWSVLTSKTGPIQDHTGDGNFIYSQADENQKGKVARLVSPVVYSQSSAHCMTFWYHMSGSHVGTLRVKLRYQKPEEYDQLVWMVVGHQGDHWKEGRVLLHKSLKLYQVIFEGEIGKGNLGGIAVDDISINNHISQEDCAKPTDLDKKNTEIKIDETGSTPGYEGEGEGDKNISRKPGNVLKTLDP

T2: Tenascin-R-Fc, purified (not stated (human or mouse sequence cloned)) (UniProt Q8BYI9)
T2 sequence: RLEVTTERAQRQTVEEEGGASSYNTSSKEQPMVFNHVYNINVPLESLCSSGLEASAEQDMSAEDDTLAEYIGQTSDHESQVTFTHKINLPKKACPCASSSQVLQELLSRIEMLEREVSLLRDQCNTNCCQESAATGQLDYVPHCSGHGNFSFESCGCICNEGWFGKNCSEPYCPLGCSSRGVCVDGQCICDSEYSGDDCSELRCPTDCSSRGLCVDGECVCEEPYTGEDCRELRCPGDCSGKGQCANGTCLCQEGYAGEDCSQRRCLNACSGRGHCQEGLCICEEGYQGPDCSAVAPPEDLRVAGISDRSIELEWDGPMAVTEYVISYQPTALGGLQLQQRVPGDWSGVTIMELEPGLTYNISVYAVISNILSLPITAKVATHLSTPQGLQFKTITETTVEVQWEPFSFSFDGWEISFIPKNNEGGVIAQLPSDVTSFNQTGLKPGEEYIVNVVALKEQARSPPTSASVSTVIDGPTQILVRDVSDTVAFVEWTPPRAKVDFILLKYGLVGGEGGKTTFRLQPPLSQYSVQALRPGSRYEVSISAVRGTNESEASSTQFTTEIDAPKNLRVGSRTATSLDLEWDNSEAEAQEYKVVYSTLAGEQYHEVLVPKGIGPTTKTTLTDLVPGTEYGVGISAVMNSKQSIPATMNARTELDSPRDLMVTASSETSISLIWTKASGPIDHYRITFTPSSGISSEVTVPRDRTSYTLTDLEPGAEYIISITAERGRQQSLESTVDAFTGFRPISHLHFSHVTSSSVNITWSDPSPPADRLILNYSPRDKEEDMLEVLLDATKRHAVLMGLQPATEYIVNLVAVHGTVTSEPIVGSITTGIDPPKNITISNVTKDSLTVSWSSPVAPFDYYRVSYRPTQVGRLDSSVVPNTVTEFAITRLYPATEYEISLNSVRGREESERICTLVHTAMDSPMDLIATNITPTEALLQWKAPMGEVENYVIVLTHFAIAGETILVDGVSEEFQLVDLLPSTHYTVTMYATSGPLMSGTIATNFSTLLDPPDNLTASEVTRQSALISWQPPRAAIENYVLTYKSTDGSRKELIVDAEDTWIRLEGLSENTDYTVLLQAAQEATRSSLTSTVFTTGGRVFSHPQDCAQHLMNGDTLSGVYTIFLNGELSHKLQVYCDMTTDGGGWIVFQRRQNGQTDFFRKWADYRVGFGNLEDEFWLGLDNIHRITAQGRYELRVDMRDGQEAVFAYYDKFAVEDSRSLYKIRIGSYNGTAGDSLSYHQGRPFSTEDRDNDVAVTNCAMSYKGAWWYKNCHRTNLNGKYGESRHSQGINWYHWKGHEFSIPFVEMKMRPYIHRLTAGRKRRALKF


Assays:
[1] = molecular target: T1, neuropilin-1 extracellular domain, AP- or Fc-tagged (interactome library) (not stated (human or mouse sequence cloned)); test: ELISA; 384-well pairwise screen; ecto-AP bait captured by plate-bound anti-AP antibody, ecto-Fc prey detected with anti-human IgG1-HRP; conditioned media; 4 h at RT; both orientations, three independent experiments; positive = OD650 > 5-fold over background, detected at least twice
[2] = molecular target: T2, Tenascin-R-Fc, purified (not stated (human or mouse sequence cloned)); test: pull-down; direct binding assay: 1 µg His-tagged IgSF8 with equimolar Fc protein in 1 ml 10 mM HEPES pH 7.4, 150 mM NaCl, 2 mM CaCl2, 1 mM MgCl2, 0.1% Tween-20, 1 h RT; Protein-A/G agarose; anti-His western blot; both purified
Brevican-Fc (mouse) = Brevican-Fc (mouse) (UniProt Q61361); test: condition: 1 µg His-tagged IgSF8 in 1 ml with equimolar Brevican-Fc; pull-down; direct binding assay: 1 µg His-tagged IgSF8 with equimolar Fc protein in 1 ml 10 mM HEPES pH 7.4, 150 mM NaCl, 2 mM CaCl2, 1 mM MgCl2, 0.1% Tween-20, 1 h RT; Protein-A/G agarose; anti-His western blot; both purified

binding [1]	binding [2]	binding (Brevican-Fc (mouse))	Molecule
binds	–	–	NLGN2 extracellular domain, AP- or Fc-tagged (interactome library) (from UniProt Q69ZK9 15-678) (domain or fragment)
–	binds	no binding	recombinant His-tagged mouse IgSF8 (protein, UniProt Q8R366 26-577) RQVHVPRGPLYRVAGTAVSISCNVSDYEGPAQQDFEWFMYRPEAPATSLGIVSTKDSQFSYAVFGPRVASGDLQVQRLKGDSVVLKIARLQAQDSGFYECYTPSTDTQYLGNYSAKVELRVLPDELQVSAAPPGPRGRQAATSPSRLTVHEGQELALGCLAQTKTKKHTHLSVSFGRAIPEAPVGRATLQEVVGLRSDMAVEAGAPYAERLASGELRLSKEGTDRYRMVVGGAQAGDSGTYHCTAAEWIQDPDGSWVQVAEKRAVLAHVDVQTLSSQLAVTVGPGERRIGPGEPLELLCNVSGALPPPGRHAAYSVGWEMAPAGAPGPGRLVAQLDTEGIGSLGPGYEDRHIAMEKVASRTYRLRLEAARPADAGTYRCLAKAYVRGSGTRLREAASARSRPLPVHVREEGVVLEAVAWLAGGTVYRGETASLLCNISVRGGPPGLRLAASWWVERPEEGELSSGPAQLVGGVGQDGVAELGVRPGGGPVSVELVGPRSHRLRLHGLGPEDEGIYHCAPSAWVQHADYSWYQAGSARSGPVTVYPYTHAVDT
